Test results from the supplement of paper PMC3334620.
Whole data set: some 33,000 sequences, median “E-score (-0.5 to 0.5)” near -0.0059, cut for the highest 2% near 0.26. The list shows a part of the results.

Target: T1, Cin5 (UniProt P40917)
T1 sequence: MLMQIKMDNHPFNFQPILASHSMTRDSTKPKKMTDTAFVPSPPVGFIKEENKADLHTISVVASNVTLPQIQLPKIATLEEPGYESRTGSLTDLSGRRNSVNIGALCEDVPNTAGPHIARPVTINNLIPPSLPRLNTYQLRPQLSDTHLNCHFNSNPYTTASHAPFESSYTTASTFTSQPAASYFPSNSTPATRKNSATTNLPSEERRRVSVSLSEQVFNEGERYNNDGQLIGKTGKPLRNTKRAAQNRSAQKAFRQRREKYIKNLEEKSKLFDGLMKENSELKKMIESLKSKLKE
Test: PBM E-score (8-mer binding enrichment) (E-score (-0.5 to 0.5)); higher = stronger / more preferred TF binding
Details: protein concentration: 100 nM; construct: GST-full length
Outline: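 Masliner-normalised scans of fluorescent anti-GST signal were the basis for scoring. That signal came from GST-tagged yeast transcription factors applied at about 100-200 nM to double-stranded universal all-10-mer Agilent arrays on fresh or once-stripped slides. Each ungapped eight-base word, pooled with its reverse complement, received an E-score from the Universal PBM Analysis Suite.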

| Sequence | PBM E-score |
| --- | --- |
| AGTTTTGC | 0.0828 |
| CGGACTAA | -0.00871 |
| ACGACGCA | 0.0498 |
| AATCCCCA | 0.175 |
| CACACCAG | -0.0385 |
| CTGCACAG | -0.137 |
| CCGGAGAC | -0.0135 |
| ACTAGTAT | 0.244 |
| CAGAGGAC | -0.16 |
| ATAGAACC | -0.0935 |
| ACAGACCA | 0.178 |
| GTATTCGA | -0.0476 |
| GTGGGCGA | 0.0134 |
| ACGGATCT | 0.00047 |
| CCATGAAA | 0.105 |
| CTAGCCAC | -0.295 |
| GCGTTGTA | 0.13 |
| CGCGGATA | 0.241 |
| ACTGAAAA | -0.00588 |
| GGTAGTCA | -0.104 |
| ATCACCAG | 0.0411 |
| CTTCTCTC | -0.122 |
| ACGCCTCG | -0.0228 |
| CTTAGCTA | 0.151 |
| AGCTACGC | -0.198 |

| Sequence | PBM E-score |
| --- | --- |
| TAAAGAAA | 0.0915 |
| ACGTTAGG | -0.0369 |
| ACGAACGC | 0.159 |
| TCATGGAA | 0.156 |
| AGTAGCAC | -0.0521 |
| GGAACTCA | -0.0233 |
| CTGACCGC | -0.068 |
| AAGGATAG | 0.0333 |
| TCATAGGA | 0.00353 |
| ACATGGGT | 0.0649 |
| ACAAGGGT | -0.0256 |
| AGGTTGGA | 0.12 |
| CTTTCCTA | -0.0434 |
| CTGTTGAA | 0.174 |
| ATCGTGTG | 0.0547 |
| ACTCAAGG | -0.142 |
| TACCCCGA | 0.147 |
| GTACAAAA | 0.187 |
| ATTTCACC | 0.0527 |
| CAACGTTC | -0.0398 |
| ATATCCCA | 0.109 |
| CGTCAATC | 0.0892 |
| CAGTTGTA | 0.00397 |
| AGAAGTAG | -0.0741 |
| ATTTTGGC | 0.2 |

| Sequence | PBM E-score |
| --- | --- |
| ACTGGTTA | 0.0299 |
| ACTTTAAC | -0.089 |
| ACAGGCCA | -0.079 |
| ACAAGGGC | -0.224 |
| AGTGTAAG | 0.0937 |
| CCCTAAGG | -0.265 |
| AGCGGAGA | 0.165 |
| TCAGTCAA | -0.0715 |
| GATTGCGC | 0.0315 |
| CAGGGCGC | -0.0291 |
| GGCGACAA | -0.178 |
| ACAGCCAA | -0.117 |
| CGCGGAAC | 0.199 |
| AGGCGACG | 0.0217 |
| GGGGACCC | -0.335 |
| AATCTCCT | -0.0944 |
| CCCGTGAC | -0.129 |
| GTCGGATA | -0.075 |
| ACTATATC | 0.214 |
| CATAGCTA | -0.0558 |
| CGAGGCCA | -0.13 |
| ATGGAGAG | -0.227 |
| ACAACAGG | -0.098 |
| GATTTTAA | 0.0399 |
| ATGAGTGC | 0.141 |

In another format: entries from further up.
ACGTTAGG
  PBM E-score = -0.0369
TACCCCGA
  PBM E-score = 0.147
AGAAGTAG
  PBM E-score = -0.0741
ACTGGTTA
  PBM E-score = 0.0299

The results go on.

| Sequence | PBM E-score |
| --- | --- |
| ATGCAAAT | 0.0924 |
| CTAAAAAA | 0.157 |
| AACCATCA | 0.0574 |
| ATTCATAC | 0.224 |
| GCTCTACA | 0.0349 |
| AGTACTAC | 0.18 |
| AGAGAAGC | 0.00101 |
| GGCTGGCA | -0.335 |
| AAAATCAG | 0.00782 |
| CAAGGTAA | 0.15 |
| CTCTTATC | 0.192 |
| CTTATCAA | 0.278 |
| ATGGATTG | 0.189 |
| CATACCGG | 0.0193 |
| ATATTCAT | 0.177 |
| ACGATTGG | 0.0542 |
| CTGGTGTA | -0.145 |
| CCATCTCG | 0.0794 |
| AGCGGTTA | -0.121 |
| AGGGAGCG | -0.126 |
| ATGCCTTC | -0.26 |
| ATCAAGGA | 0.0502 |
| ACCGACCA | 0.114 |
| AAAGATCA | 0.0533 |
| ACACCTAC | 0.0674 |

| Sequence | PBM E-score |
| --- | --- |
| CCTTTCCC | -0.131 |
| ATGTAAAA | 0.146 |
| ACCGTCTC | -0.0405 |
| CCGTTGAC | -0.121 |
| ACGTATGG | -0.0978 |
| ACTGTCTA | 0.0181 |
| ACTTCAAG | -0.0303 |
| AACAGGGG | -0.116 |
| GCTTCGCA | -0.174 |
| AGGGCAAG | -0.019 |
| ATACGATG | 0.129 |
| GAGCGAGC | 0.0244 |
| ATGAACAC | 0.0544 |
| GCAAAGAA | 0.0988 |
| AAAAATTT | 0.00434 |
| ACGAAAAT | 0.17 |
| CACAGCCC | -0.288 |
| GTGAAGGA | -0.0141 |
| CAAACCGA | 0.072 |
| ACCAGAGG | -0.247 |
| ACAATAGG | 0.024 |
| AATAAAGA | 0.113 |
| AATGCATA | 0.116 |
| AGCGGTAA | 0.116 |
| ATAGGCAC | -0.159 |

| Sequence | PBM E-score |
| --- | --- |
| ACTATACG | -0.00616 |
| AGTTAGCA | 0.161 |
| AGCCCGAT | -0.00819 |
| TGTCCCAA | -0.102 |
| ATCGTGGG | 0.0716 |
| CGTATCTC | -0.0672 |
| ATAGTCTG | 0.0407 |
| GACTCCTC | -0.066 |
| AGAGGCCA | -0.196 |
| AGTGCGAG | -0.072 |
| CCGGGATC | 0.119 |
| TCGTCTAA | -0.103 |
| GACTGGGA | 0.139 |
| GACAGGGC | -0.233 |
| ATAGCGAG | -0.116 |
| CTCCCAAC | -0.219 |
| CTCGTCGC | -0.011 |
| AGGTCAAA | -0.191 |
| ACTCAGCA | 0.161 |
| TCTCCAGA | -0.229 |
| AAGAGTGA | 0.0194 |
| AGAACACT | 0.0637 |
| GCGTCATA | 0.112 |
| CTACCAAA | -0.0011 |
| GGTTGCTA | -0.0578 |

| Sequence | PBM E-score |
| --- | --- |
| ACCTGTGC | -0.042 |
| GTCTTCGA | -0.105 |
| CGAGTGAG | 0.0323 |
| GAGTCGAC | 0.063 |
| AGAAAGTC | 0.0218 |
| ATAAATCG | 0.159 |
| ACATAGTC | 0.124 |
| AGGCTTGG | -0.0873 |
| AACCCGCA | 0.0428 |
| GGTCAGAA | -0.0712 |
| CCGGAAAC | 0.0344 |
| GGAATTAA | 0.145 |
| CATACAAG | -0.0434 |
| CTCCGAAC | -0.108 |
| ATGTGTTG | 0.24 |
| CCATGAGC | -0.119 |
| ACTCTCAG | -0.124 |
| ACCCTGCT | -0.201 |
| CGTCGACA | -0.0223 |
| GACAAGCC | 0.00939 |
| CCTTTTAA | -0.0794 |
| CTGCGATA | -0.03 |
| AAGAGCCA | 0.0467 |
| GACACATC | 0.0514 |
| GACACTCC | 0.0166 |

| Sequence | PBM E-score |
| --- | --- |
| CCAGGAGC | -0.258 |
| GGGATGTA | 0.0944 |
| AAGAGACC | 0.0456 |
| ATCCAATG | -0.00595 |
| CTCATGGA | -0.0437 |
| ACGACCGA | -0.0622 |
| GTATTGAC | 0.0334 |
| GGGGAAAC | -0.0321 |
| GTTTCTCA | 0.0125 |
| TAGAGGCA | -0.158 |
| AAGCTGGA | -0.0206 |
| CACCATCA | 0.0581 |
| AACTGGTG | -0.0874 |
| CAAGCCCA | -0.212 |
| CAATCGAA | 0.0731 |
| GATATAGC | 0.109 |
| AGATACGG | 0.0474 |
| TAAAGGGA | -0.115 |
| AAGTCCGA | -0.146 |
| GTCTAGGA | -0.178 |
| ACCTGTGA | 0.0529 |
| AGGTGTGG | -0.156 |
| GTATTTTA | 0.0961 |
| AGATGGCG | 0.0661 |
| CACCATAA | 0.104 |

Quoted from the listing:
Entry of ACGACCGA under PBM E-score: -0.0622
Entry of AAGTCCGA under PBM E-score: -0.146
Entry of ATCCAATG under PBM E-score: -0.00595

Following part.

| Sequence | PBM E-score |
| --- | --- |
| ATCATTCG | 0.256 |
| TACCAGCA | 0.117 |
| GGGAGCAC | -0.337 |
| AGTAGCAG | 0.0739 |
| ATCGCGAG | 0.197 |
| CCAATACA | 0.171 |
| GATTGTAC | -0.0353 |
| GAAGTTAC | 0.196 |
| ACTTATAA | 0.172 |
| TCTGAGAA | 0.0605 |
| ATAAGTCA | 0.229 |
| CAAGCCCG | -0.206 |
| GACGGCCA | 0.0076 |
| AAACGTGT | -0.0863 |
| ATAAAGAG | 0.0111 |
| CACTGATG | -0.0558 |
| GCGCCGTA | -0.0196 |
| TCATGAGA | 0.023 |
| CATGACGA | 0.103 |
